Consider 44 compounds from PubChem BioAssay AID901 (National Center for Advancing Translational Sciences (NCATS), 2007).

Structures are written as SMILES. The list shows a part of the results. Further columns of the screen follow, without active or inactive calls. Compounds called inactive in the main read-out are mostly missing here. Potencies come from curve fits of mixed quality, noted in brackets.

This assay in a line: qHTS Assay for Identifying the Cell-Membrane Permeable IMPase Inhibitors. Conditions: CHO-M1 cells, IP1 accumulation, HTRF TR-FRET ratio; measured here: donor channel 620 nm AC50. A general note: In qHTS, concentration-response curves come from the screen itself.
On to `O=C(CN(C(=O)CNS(=O)(=O)c1ccccc1)c1ccc2c(c1)OCCO2)NCc1ccco1`, for which the AC50 (in general, the concentration at which the activity in the assay is half-maximal) is 1.58 µM [rising, partial curve].
Under `CC1(C)NC(=O)N(CC(O)COc2ccccc2C(=O)N2CCCCC2)C1=O` (centres undefined) stands 0.631 µM [rising, full curve, poor fit]; under `Cc1ccc(CNC(=O)CCc2nc3ccccc3c(=O)[nH]2)cc1`, 0.0501 µM [rising, partial curve, poor fit]; under `CCc1ccc2oc(-c3cc(NC(=O)c4cc(OC)c(OC)c(OC)c4)ccc3O)nc2c1`, 12.6 µM [rising, partial curve].
Under `CCCCOC(=O)CSCC(=O)Nc1cc(C)on1` stands 2.51 µM [rising, partial curve, poor fit]; under `CCOC(=O)c1cc(C(=O)c2cccs2)n2ccc(C(C)=O)cc12`, 31.6 µM [rising, single point]; under `O=C1NC(c2ccccc2)=C(c2ccc3ccccc3n2)C(c2ccncc2)N1` (centres undefined), 3.16 µM [rising, full curve, poor fit].
Under `O=[N+]([O-])c1ccc(NNC(=S)Nc2ccc(F)cc2)cc1` stands 12.6 µM [falling, single point]; under `CCCOc1ccc(N2C(=O)CC(N3CCC(c4nncn4CC)CC3)C2=O)cc1` (centres undefined), 5.01 µM [falling, single point].
With `CC1(C)CC(=O)C2=C(C1)N(Cc1ccco1)C(=O)C2(O)C(F)(F)F` (centres undefined), the half-maximal activity concentration (AC50) was 25.1 µM [falling, single point].
Under `CN(C1CCCCC1)S(=O)(=O)c1ccc(NC(=O)c2ccco2)cc1` stands 5.62 µM [falling, full curve, poor fit]; under `CC(CCc1ccccc1)NC(=O)c1ccco1` (centres undefined), 3.98 µM [falling, partial curve]; under `N#Cc1ccc(-c2nc3ccccc3nc2-c2ccccc2)cc1C#N`, 25.1 µM [rising, single point].
As to `O=C(Nc1cccc(C(=O)O)c1)/C(=C\c1ccccc1)NC(=O)c1ccccc1Cl`, the AC50 was 5.01 µM [rising, partial curve].
`CS(=O)(=O)N(CC(=O)Nc1c(F)cccc1F)c1cccc([N+](=O)[O-])c1`: the half-maximal activity concentration (AC50) was 6.31 µM [rising, full curve].
Under `C=CCn1c(SCc2c(C)noc2C)nc2sc3c(c2c1=O)CCCC3` stands 31.6 µM [falling, single point]; under `CCOc1cc2nc(-c3ccc(OC)c(OC)c3)nc(N3CCOCC3)c2cc1OC`, 2 µM [falling, single point]; under `O=C(c1ccc(Cl)c(Cl)c1)N1CCOCC1`, 0.158 µM [rising, single point].
Under `O=C(Nc1nccs1)c1ccc(S(=O)(=O)NCc2cccs2)cc1` stands 3.98 µM [falling, full curve].
Under `COc1ccc2c(c1)[nH]c1c(=O)n(CCCn3ccnc3)cnc12` stands 0.0794 µM [falling, full curve]; under `CC(=O)C1C(c2ccccc2)c2c(n[nH]c2C)CC1(C)O` (centres undefined), 0.794 µM [falling, full curve].
In the case of `Cc1ccc(Oc2nc(-c3ccccc3)ncc2S(=O)(=O)c2ccc(C)cc2)cc1`, the concentration at half-maximal activity (AC50) was 0.0112 µM [falling, full curve].
With `Cc1ccc(/C=C/c2nnc(-c3ccc(C)cc3)o2)cc1`, the half-maximal activity concentration (AC50) is 0.0251 µM [rising, full curve, poor fit].
Under `c1ccc(CNCC2COc3ccccc3O2)cc1` (centres undefined) stands 15.8 µM [falling, single point]; under `NC(=O)NC(Cc1ccccc1)C(=O)Nc1ccc(S(N)(=O)=O)cc1` (centres undefined), 3.16 µM [falling, partial curve]; under `CCOc1ccc(Nc2nc3ccccc3c3nnc(CC)n23)cc1`, 6.31 µM [falling, single point].
Under `CCN(CC)C(=O)c1sc(NC(=O)C2c3ccccc3Oc3ccccc32)c(C(=O)OC(C)C)c1C` stands 5.62 µM [falling, single point]; under `Cn1c(-c2ccc(N)cc2)nc2ccccc21`, 0.126 µM [falling, full curve, poor fit]; under `COc1ccccc1NC(=O)CSc1nnnn1-c1ccc(C)cc1`, 0.794 µM [falling, full curve].
Under `Cc1nn2cc(-c3ccccc3)nc2[nH]c1=O` stands 0.398 µM [falling, partial curve, poor fit]; under `O=C(Nc1ccccc1)c1sc(N2CCOCC2)nc1-c1ccccc1`, 25.1 µM [rising, partial curve].
As for `CNC(=O)c1[nH]cnc1C(=O)Nc1ccccc1C`, the half-maximal activity concentration (AC50) was 0.1 µM [rising, partial curve].
As to `COc1ccc(/C=C/c2ccncc2)cc1OC`, the AC50 is 6.31 µM [falling, single point].
Under `Cc1cccc(Nc2c(-c3ccsc3)nc3nc(C)cc(C)n23)c1` stands 12.6 µM [rising, partial curve].
Under `COCCNC(=O)CSc1nc(-c2ccccc2)cs1` stands 0.1 µM [rising, full curve]; under `CCc1ccc(NC(=O)CCNS(=O)(=O)c2cccc3nsnc23)cc1`, 0.316 µM [falling, full curve, poor fit].
With `O=C(NCCc1ccccc1)c1cc(-c2ccco2)on1`, the AC50 was 12.6 µM [rising, single point].
Under `OCCCCCNc1ncnc2ccccc12` stands 25.1 µM [rising, single point]; under `Cc1ccc(C(=O)N/N=C\c2c(C)nn(-c3ccccc3)c2Cl)cn1`, 14.1 µM [rising, single point].
As to `O=C(Nc1c(C(=O)N2CCCC2)cnn1-c1ccccc1)c1cccc(F)c1`, the AC50 is 31.6 µM [falling, single point].
Under `Cc1ccc(-n2nc3c(=S)[nH]nc(C)c3c2C)cc1` stands 15.8 µM [rising, partial curve]; under `Cc1ccc(C(=O)COC(=O)c2cc(-c3ccc(Cl)cc3)nc3ccccc23)cc1`, 7.08 µM [rising, partial curve]; under `Cc1c(N2C(=O)CS/C2=N\N=C\c2ccccc2O)c(=O)n(-c2ccccc2)n1C`, 0.794 µM [falling, full curve].
Under `C=CCn1c(SCc2ccccc2)nc2scc(-c3ccc(C)o3)c2c1=O` stands 25.1 µM [rising, single point].
